Measured values published in PubChem BioAssay AID493014 (National Center for Advancing Translational Sciences (NCATS), 2011).
The whole screen tested about 340,000 compounds, of which about 170 (0.05%) were called active. This list was built around the results that the source calls inconclusive (neither active nor inactive); the mix of calls is not that of the screen. Calls follow the shape of the dose curve; as a rule, active = well fitted inhibition curve with a large enough effect in the signal ratio, with a control signal flat (not every such curve was filed as active); inconclusive = small, poorly fitted or top-dose-only effect, or effect the other way, or a change in a side signal; inactive = flat fitted curve, though single readings scatter; the % refers to the signal ratio. Potencies beside an inconclusive call are fits to weak or partial responses and may not hold up.

assay: qHTS Assay to Find Inhibitors of Chronic Active B-Cell Receptor Signaling; conditions: ABC-DLBCL IkBa-CBG/CBR reporter, luminescence ratio (green luciferase fused to IkBa over red control in TMD8 lymphoma cells), 4 h; activity change, negative = inhibition: at 46.1 µM (top of the series) unless noted;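 as to activity change, negative = inhibition: plate controls were basal doxycycline-induced cells for no effect and cells given 10 µM MG132 for full effect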
Summary of the method: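 Cell line TMD8 (human ABC DLBCL), stably expressing tet-inducible CBG68-IkBa fusion and CBR; IMDM/0.5% FBS; cpd up to 46 uM; dox induction, 4 h, 37C/5% CO2; dual luminescence; green/red ratio; MG132 control.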
Potency is read from the fitted curve at half-maximal effect.

Row | Compound | activity change, negative = inhibition | Potency
1 | Cc1ccc(C(=O)N/N=C\c2ccc(OC(=O)c3cccs3)cc2)cn1 | inconclusive: 7.34% | 
2 | CCOC(=O)Cc1csc(NC(=O)Cc2cccs2)n1 | inconclusive: -1.2% | 
3 | COc1ccc(C)cc1S(=O)(=O)N1CCN(c2cccc(C(F)(F)F)c2)CC1 | inconclusive: -1.24% | 
4 | Cc1cc(/C=C2/SC(=O)N(CC(=O)N3CCCC3)C2=O)c(C)n1C | inconclusive: -0.413% | 
5 | COc1cc(/C=N/NC(=O)c2ccccn2)ccc1OC(=O)c1cccs1 |  | inconclusive: 25.1 µM [falling, single point]
6 | O=C(CN1C(=O)c2ccccc2C1=O)OCC(=O)c1ccc(F)cc1 | inconclusive: 9.62% | 
7 | O=C(Cn1cnc2c(nnn2Cc2ccccc2F)c1=O)OCc1ccccc1 | inconclusive: 6.04% | 
8 | Cc1nn(CCc2n[nH]c(=S)n2-c2ccc(F)c(Cl)c2)c(C)c1[N+](=O)[O-] | inconclusive: 17.2% | 
9 | O=C(NCC(c1ccco1)N1CCN(c2ccc(F)cc2)CC1)c1ccc2c(c1)OCO2 (stereo not given) | inactive: 10.6% | 
10 | O=c1[nH]n(-c2ccccc2Cl)c(=O)c2ccccc12 | inconclusive: -0.843% | 
11 | CC(Sc1nc2ncc(Cl)cc2[nH]1)C(=O)NC1(C#N)CCCCC1 (stereo not given) | inconclusive: -3.96% | 
12 | Cc1cc(SCC(=O)Nc2ccc3[nH]c(=O)[nH]c3c2)nc2ccccc12 | inactive: -2.89% | 
13 | CCCn1c(=O)c(C(=O)Nc2cccc(C)n2)c(O)c2ccccc21 | inactive: -0.348% | 
14 | CCN1CCN(Cc2ccc(NC(=O)c3cc(NC(=O)C(=O)c4c[nH]c5ccccc45)cc(OC)c3)cc2C(F)(F)F)CC1 |  | inconclusive: 35.5 µM [falling, single point]
15 | CN(C)S(=O)(=O)c1cccc(COc2ccccc2C(=O)Nc2ccccc2)c1 | inconclusive: 0.0357% | 
16 | Cc1nc(Nc2ccc(F)cc2)[nH]c(=O)c1CCC(C)C | inconclusive: 19.1% | 
17 | COc1ccc(C(=O)OCC(=O)NC(C)CCc2ccccc2)cc1OC (stereo not given) | inactive: -2.61% | 
18 | COc1ccc(C2N(c3ccc(OC)cc3)C(=O)C3CCCN32)cc1 (stereo not given) | inconclusive: -1.22% | 
19 | CCN(CC)c1ccc(NC(=O)c2ccc3c(c2)c(C)c(C)n3C)cc1 | inconclusive: 242% | 
20 | COc1ccc(C(=O)C2CCCN(Cc3cccn3-c3cccnc3)C2)cc1OC (stereo not given) | inactive: -0.387% | 
21 | CSc1ncc(C(=O)Nc2ccc(Br)cn2)c(C)n1 |  | inconclusive: 25.1 µM [falling, single point]
22 | O=S(=O)(NCC(c1ccco1)N1CCc2ccccc21)c1ccccc1 (stereo not given) | inactive: -0.26% | 

Among those listed so far, three have a thiophene ring, fused or not:
Row | Compound | activity change, negative = inhibition | Potency
1 | Cc1ccc(C(=O)N/N=C\c2ccc(OC(=O)c3cccs3)cc2)cn1 | inconclusive: 7.34% | 
2 | CCOC(=O)Cc1csc(NC(=O)Cc2cccs2)n1 | inconclusive: -1.2% | 
5 | COc1cc(/C=N/NC(=O)c2ccccn2)ccc1OC(=O)c1cccs1 |  | inconclusive: 25.1 µM [falling, single point]

The listing continues:

Row | Compound | activity change, negative = inhibition | Potency
23 | CC(C)(Oc1ccc(Cl)cc1)C(=O)Nc1cccnc1 |  | inconclusive: 12.6 µM [falling, partial curve, poor fit]
24 | COc1ccc(C(=O)COc2ccccc2C(=O)Nc2ccccc2)cc1 | inactive: 6.68% | 
25 | Cc1nc(NCC2CC2)c2nnn(Cc3ccccc3)c2n1 |  | inconclusive: 2.82 µM [falling, full curve, poor fit]
26 | CC(=O)Nc1ccc(/C=C/C(=O)c2ccc3c(c2)OCCO3)cc1 |  | inconclusive: 11.2 µM [falling, partial curve, poor fit]
27 | Cc1ccc2nc(NCCCO)nc(-c3ccccc3)c2c1 | inconclusive: 11.7% | 
28 | O=C1C2C3C=CC(CC3)C2C(=O)N1c1cccc(Br)c1 (stereo not given) | inconclusive: 1.3% | 
29 | CC1c2cc3c(cc2CCN1S(=O)(=O)c1ccccc1)OCCCO3 (stereo not given) | inactive: 1.44% | 
30 | COc1ccc(-c2nc(CN3CCN(Cc4ccccc4)CC3)c(C)o2)cc1 | inactive: -1.19% | 
31 | CC(=O)Nc1ccc(NC(=O)c2ccc3c(c2)C(=O)N(c2ccccc2C)C3=O)cc1 | inconclusive: 1.72% | 
32 | O=C1CC(C(=O)N2CCN(c3ccccn3)CC2)CN1Cc1ccccc1Cl (stereo not given) | inactive: 4.46% | 
33 | Cc1cc(C)nc(NC(=NCCc2c[nH]c3ccccc23)NC(=O)Nc2ccccc2)n1 | inconclusive: -11.3% | 
34 | CCc1ccccc1NC(=O)c1cc(-c2cccc(O)c2)on1 |  | inconclusive: 25.1 µM [rising, single point]
35 | O=C1NC(c2ccc(Br)cc2)Nc2ccccc21 (stereo not given) | inactive: 6.42% | 
36 | CC1(C)N([O-])c2cc([N+](=O)[O-])ccc2[N+]1=O | inactive: 9.83% | 
37 | COCCCNC(=O)CCSc1ccc(Cl)cc1 | inactive: 3% | 
38 | O=C1NC2(CCCC2)N=C1c1ccc(F)cc1 | inconclusive: 8.81% | 
39 | Cc1nc(CN2CCN(C(=O)c3ccc(C(C)(C)C)cc3)CC2)cs1 | inactive: 13.3% | 
40 | Cc1cccc(NC(=O)c2ccc(OC3CSC3)cc2)c1 |  | inconclusive: 20.6 µM [falling, single point]
41 | O=C(Nc1cccn(Cc2c(Cl)cccc2Cl)c1=O)c1ccccc1Cl | inconclusive: -10.5% | 
42 | Cc1ccc(Nc2nc(-c3ccncc3)nc3ccccc23)cc1 | inactive: -17.8% | 
43 | CC1(C)CC(=O)C=C(c2ccc(Oc3ccccc3)cc2)C1 |  | inconclusive: 0.259 µM [rising, full curve, poor fit]
44 | Cc1ccc(NC(=O)c2ccc(=O)n(CC(=O)Nc3cc(C)cc(C)c3)n2)cc1 |  | inconclusive: 14.1 µM [falling, partial curve, poor fit]

Row | Compound | activity change, negative = inhibition | Potency
45 | CCN1CCN(S(=O)(=O)c2ccc(Cl)c(C(=O)NCCOc3ccc(C)cc3)c2)CC1 | inactive: -4.23% | 
46 | COc1cc2c(cc1OC)CN(Cc1nc3ccsc3c(=O)[nH]1)CC2 | inconclusive: 0.11% | 
47 | Nc1c(Cl)cc2c(c1Oc1ccccc1)C(=O)c1ccccc1C2=O | inactive: 11.8% | 
48 | N#CC1=C(S)N(c2ccccc2)C(c2ccc(-c3ccccc3Cl)o2)NC1=O (stereo not given) | inconclusive: -16% | 
49 | COc1ccccc1NC(=O)Nc1ccc2c(c1)nnn2C |  | inconclusive: 29.1 µM [rising, partial curve]
50 | NC(=O)C1CCN(c2nc(-c3ccccc3N)cs2)CC1 | inconclusive: 22.9% | 
51 | O=C(NC(=S)Nc1nc2ccccc2s1)c1ccco1 |  | inconclusive: 11.6 µM [rising, partial curve]
52 | COCCNC(=O)CCc1nnc(Cc2ccc(-c3ccccc3)cc2)o1 | inactive: -2.46% | 
53 | Cc1ccc(C)c(Nc2cc(C)nc(-c3ccccc3O)n2)c1 | inconclusive: -0.518% | 
54 | CC(C)c1ccc(/C=N/N2CCN(c3ccccn3)CC2)cc1 | inconclusive: 14.4% | 
55 | CCCCNC(=S)NNC(=O)CCn1nc(C)c(Br)c1C |  | inconclusive: 6.31 µM [falling, full curve]
56 | COc1cc([C@@H]2CC=C(C(=O)O)CN2S(=O)(=O)c2ccc(C)cc2)cc(OC)c1OC | inactive: 3.48% | 
57 | O=C(c1ccc(Br)o1)N1CCc2ccccc21 | inconclusive: 1.91% | 
58 | CC#CCN1c2ccccc2[C@]23C[C@@H](C(=O)OC)N(C(=O)OCC)C2=NC(C(=O)OC)=C(C(=O)OC)[C@H]13 | inconclusive: 1.11% | 
59 | CC(C)CCNC(=O)CN(Cc1ccco1)C(=O)c1snc(C(N)=O)c1N | inactive: -1.2% | 
60 | CC1CCCCN1S(=O)(=O)Cc1ccccc1Cl (stereo not given) | inactive: 1.39% | 
61 | O=C(NCc1cccs1)C(=O)NCC1OCCCN1S(=O)(=O)c1ccccc1 (stereo not given) | inconclusive: 5.02% | 
62 | O=C(NCCc1ccccn1)c1ccc(COc2ccccc2)o1 | inconclusive: -10.2% | 
63 | O=C(NCc1ccccc1)C(=O)Nc1nc(-c2ccccc2)cs1 | inconclusive: 4.27% | 
64 | O=C(N/N=C/c1cn(-c2ccccc2)nc1-c1cccs1)c1ccc(Cl)cc1 | inconclusive: 5.77% | 
65 | CN1C(=O)C(O)(C2OC(C)(C)CCC2=O)c2ccccc21 (stereo not given) | inactive: -29.2% | 
66 | COc1ccc(C(=O)Nc2nccs2)cc1OC | inconclusive: -1.96% | 

Row | Compound | activity change, negative = inhibition | Potency
67 | O=Cc1ccc(-c2nc3ccccc3s2)o1 |  | inconclusive: 1.41 µM [rising, full curve]
68 | COc1ccc(-c2cc(-c3ccccc3)nc(SCC(=O)Nc3nccs3)c2C#N)cc1 | inactive: -0.331% | 
69 | Cc1cc(SCc2ccccc2)nc(=O)[nH]1 | inactive: -13.2% | 
70 | CC(C)(C)C(=O)CN1C(=O)C2(OCCO2)c2ccccc21 | inconclusive: 3.9% | 
71 | C/C(=N/NC(=O)CNC(=O)c1ccccn1)c1ccccc1 | inconclusive: 1.6% | 
72 | Cc1ccc(C2NNC(=O)C2NC(=O)c2ccccc2)cc1 (stereo not given) |  | inconclusive: 29.1 µM [falling, single point]
73 | CCn1c(CNC(=O)COc2ccc(C(C)C)cc2)nnc1SCC(=O)Nc1ccc(F)cc1 |  | inconclusive: 32.6 µM [falling, partial curve, poor fit]
74 | CC(Sc1ccc(Cl)cc1)C(=O)Nc1ccc(S(=O)(=O)N2CCOCC2)cc1 (stereo not given) | inactive: -7.41% | 
75 | COCCNC(=O)c1c(N)n(CCC2=CCCCC2)c2nc3ccccc3nc12 |  | inconclusive: 4.11 µM [rising, full curve, poor fit]
76 | CCOC(=O)c1ccc(NC(=O)CCS(=O)(=O)Cc2ccccc2)cc1 | inconclusive: -0.78% | 
77 | Nc1c(Cl)cc(C2=NCCn3c2c2ccc(C(F)(F)F)cc2[n+]3[O-])cc1Cl | inconclusive: -4.87% | 
78 | Cc1ccc(C(=O)N2CCC(C(=O)Nc3cccc([N+](=O)[O-])c3)CC2)cc1 | inactive: 3.54% | 
79 | Cc1cc(NS(=O)(=O)c2ccc(-c3ccccc3)cc2)no1 |  | inconclusive: 23.1 µM [rising, partial curve, poor fit]
80 | O=c1[nH]ncc2c3ccccc3n(Cc3ccccc3)c12 |  | inconclusive: 35.5 µM [falling, partial curve, poor fit]
81 | c1ccc2cc3[nH]c(CN4CCOCC4)nc3cc2c1 | inconclusive: -23.9% | 
82 | O=C1CSC(=O)N1CC(O)COc1ccc(Cl)cc1 (stereo not given) | inconclusive: 3.89% | 
83 | Cn1c(=O)c2[nH]c(COc3ccc(C(C)(C)C)cc3)nc2n(C)c1=O | inconclusive: 20.9% | 
84 | CC(/C=N/NC(=O)c1ccc2nc(C)[nH]c2c1)=C\c1ccccc1 | inconclusive: 1.33% | 
85 | S=c1[nH]nc(Cc2ccccc2)n1Cc1ccco1 | inactive: 3.9% | 
